According to article PMC8129509:
Results are given in words; binding and its absence hold for the method and conditions named. In cells and extracts the contact can be indirect. Some results given as binding are weak or reduced against the parent protein; the word gives no strength. Where a sequence is shown, tags or fusion partners need not be part of it.

The chains behind the UniProt entries cited, without tags or fusion partners. Residues count along the entry.
UniProt Q9QUK6, residues 26-835: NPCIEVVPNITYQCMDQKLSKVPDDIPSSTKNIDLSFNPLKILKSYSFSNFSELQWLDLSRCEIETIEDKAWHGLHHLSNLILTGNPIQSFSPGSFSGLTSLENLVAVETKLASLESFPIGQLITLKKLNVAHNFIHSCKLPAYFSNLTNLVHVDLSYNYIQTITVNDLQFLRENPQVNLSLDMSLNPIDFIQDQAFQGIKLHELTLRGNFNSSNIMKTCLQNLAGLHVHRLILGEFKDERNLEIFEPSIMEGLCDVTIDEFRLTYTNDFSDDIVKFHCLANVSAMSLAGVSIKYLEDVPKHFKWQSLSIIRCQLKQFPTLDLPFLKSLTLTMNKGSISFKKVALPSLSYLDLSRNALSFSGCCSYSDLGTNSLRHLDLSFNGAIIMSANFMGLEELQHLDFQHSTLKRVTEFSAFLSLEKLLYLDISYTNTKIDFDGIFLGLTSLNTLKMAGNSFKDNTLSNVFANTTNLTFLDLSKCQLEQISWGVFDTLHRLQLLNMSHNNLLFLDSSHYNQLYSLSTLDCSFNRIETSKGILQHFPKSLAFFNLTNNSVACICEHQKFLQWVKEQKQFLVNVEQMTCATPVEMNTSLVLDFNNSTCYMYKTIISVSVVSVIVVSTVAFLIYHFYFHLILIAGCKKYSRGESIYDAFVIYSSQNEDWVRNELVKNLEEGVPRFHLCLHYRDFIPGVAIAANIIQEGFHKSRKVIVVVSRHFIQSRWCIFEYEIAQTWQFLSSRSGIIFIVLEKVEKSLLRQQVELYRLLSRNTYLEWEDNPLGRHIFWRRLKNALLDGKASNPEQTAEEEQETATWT

Molecular target: T1, Mycobacterium tuberculosis Rv2145c, recombinant His-tagged (Mycobacterium tuberculosis H37Rv) (UniProt P9WMU1)
T1 sequence: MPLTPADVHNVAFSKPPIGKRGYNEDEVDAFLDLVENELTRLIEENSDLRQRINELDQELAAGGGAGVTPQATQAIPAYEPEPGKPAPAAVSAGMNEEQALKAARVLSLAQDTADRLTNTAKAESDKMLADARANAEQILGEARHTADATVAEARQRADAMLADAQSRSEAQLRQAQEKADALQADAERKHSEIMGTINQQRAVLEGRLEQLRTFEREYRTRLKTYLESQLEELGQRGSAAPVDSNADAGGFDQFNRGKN
Assay: co-IP; only the target purified

TLR4 (from UniProt Q9QUK6 26-835) (receptor)
binding: binds
